The whole screen tested about 59,000 compounds, of which about 6,500 (11%) were called active. Inconclusive results, whose numbers are uncertain, are shown with a selection of clear calls. Rule as the data show it: active = max dye-equivalent concentration above about 10 nM; inconclusive = mostly about 1.1 nM to 9.6 nM; inactive = weaker than that.
Experiment: qHTS Assay for Spectroscopic Profiling in A350 Spectral Region
Settings: Compound autofluorescence, 340/450 nm, Alexa 350 dye-equivalents; stronger effect = higher value

| Structure (SMILES) | max dye-equivalent concentration |
| --- | --- |
| COc1ccc(C2CC(c3ccccc3)Nc3nc(N)nn32)cc1 (stereo unspecified) | active: 1200 nM |
| O=S1(=O)CCN2C=C(Br)C=C(Br)C2=N1 | active: 110 nM |
| O=c1c2cccc3c(N4CCOCC4)ccc(c32)c2nc3ccccc3n12 | inconclusive: 3.1 nM |
| CC(C)CN(C(=O)COC(=O)Cn1cnc2ccccc2c1=O)C1CCS(=O)(=O)C1 (stereo unspecified) | inconclusive: 9.8 nM |
| CCOc1ccc(NS(=O)(=O)c2ccc(OCC(=O)N3CCCC3)cc2)cc1 | inactive |
| CC(=O)Nc1ccc(Cc2ccc3[nH]c(=O)cc(C)c3c2)cc1 | inactive |
| C[C@H](NC(=O)Nc1ccccc1F)C(=O)O | inconclusive: 1.2 nM |
| N#CCCn1cc(C(CC(=O)c2ccccc2)C(=O)O)c2ccccc21 (stereo unspecified) | inactive |
| COCCn1c(SCC(=O)Nc2ncc(Cl)c(C)c2Cl)nc2ccccc21 | inconclusive: 1.3 nM |
| CN1C(=O)c2ccccc2N(C)C1c1cccs1 (stereo unspecified) | active: 2000 nM |
| Cc1nc(CC(=O)Nc2nc(-c3ccccc3)cs2)cs1 | inconclusive: 1.5 nM |
| Cc1ccccc1S(=O)(=O)Cc1ccc(C(=O)NCc2cccnc2)o1 | inconclusive: 1.2 nM |
| CNc1nc(-c2ccoc2)nc2ccccc12 | inactive |
| COc1ccccc1Cn1cnc2cccnc21 | inconclusive: 7.8 nM |
| O=C(c1ccccc1F)N1CCN(Cc2cccc(Cl)c2)CC1 | inactive |
| CCOC(=O)c1c(C)oc2ccc(OCC(N)=O)cc12 | inactive |
| COc1ccc2ccccc2c1/C=N/O | inconclusive: 5 nM |
| Nc1nc2nccc(-c3ccc(Cl)cc3)n2n1 | active: 3500 nM |
| Cc1cc(C(F)F)n2ncc(C(=O)NC3CCCCCC3)c2n1 | inconclusive: 1.6 nM |
| Cc1ccc(S(=O)(=O)OCC(=O)O)cc1 | inactive |
| CCCOc1ccc(C(=O)N2CCN(c3ccc(N)cc3Cl)CC2)cc1 | inactive |

| Structure (SMILES) | max dye-equivalent concentration |
| --- | --- |
| CC(C)c1nc2oc3c(N4CCN(C)CC4)ncnc3c2c2c1CCC2 | inactive |
| Cn1c(=O)c2c(nc(Br)n2CCSc2ncccn2)n(C)c1=O | active: 290 nM |
| CN(C)C(=O)c1ccc(-c2cncnc2N2CCNCC2)cc1 | inactive |
| N#Cc1nc(-c2ccco2)oc1NCCc1ccccc1 | inconclusive: 4.9 nM |
| CCOC(=O)c1oc2ccccc2c1NC(=O)c1cc(OC)cc(OC)c1 | active: 21 nM |
| Cc1cc(S(=O)(=O)NCCN(C)C)c(C)s1 | inactive |
| O=C(N1CCOCC1)N1c2ccccc2CC(N2CCOCC2)c2ccccc21 (stereo unspecified) | inconclusive: 1.1 nM |
| Cc1cccc2nc(=S)n(C(=O)c3ccco3)n12 | inconclusive: 5.4 nM |
| O=c1c2c(nc3c(-c4ccc(Cl)cc4)c[nH]n13)CCCC2 | inconclusive: 2.4 nM |
| Cc1n[nH]c(C)c1Cc1ccc(C(=O)O)cc1 | inactive |
| COc1ccccc1C(=O)Oc1ccc(N2C(=O)CCC2=O)cc1 | inconclusive: 1.2 nM |
| O=c1n(Cc2ccccc2)c2cc(Cl)cnc2n1Cc1ccccc1 | active: 12 nM |
| CC1CN(c2nc3c(c(=O)[nH]c(=O)n3C)n2Cc2ccccc2F)CC(C)O1 (stereo unspecified) | inconclusive: 2.1 nM |
| O=C1CCCc2c1[nH]c1ccc(Br)cc21 | inconclusive: 1.3 nM |
| CN=C(N)NCCC[C@H](N)C(=O)O | inconclusive: 4.5 nM |
| CSc1nc2c(c(-c3ccc(O)cc3)c1C#N)CCC2 | active: 18 nM |
| Cc1c(C(=O)OCc2cc(=O)n3cc(Br)ccc3n2)oc2ccccc12 | inactive |
| CCN[C@@H]1C[C@H](N)[C@H](O[C@H]2OC(CN)=CC[C@H]2N)[C@@H](O)[C@H]1O[C@H]1OC[C@@](C)(O)[C@@H](NC)[C@@H]1O | active: 12 nM |
| CCC(C)(C)NC(=O)CN(C(=O)c1snc(C(N)=O)c1N)c1ccc2c(c1)OCO2 | inconclusive: 2.7 nM |
| COc1ccc(CCNC(=O)Cn2nnc(-c3ccc(N4CCOCC4)cc3)n2)cc1OC | inconclusive: 5.3 nM |
| COc1ccc2ccccc2c1C1CC(=O)N2CN(C)CSC2=C1C#N (stereo unspecified) | inconclusive: 4.8 nM |

| Structure (SMILES) | max dye-equivalent concentration |
| --- | --- |
| Cc1cccc(CN2CCN(CC(=O)O)C2=O)c1 | inconclusive: 5.7 nM |
| Nc1nc2c(c(=O)[nH]1)N[C@H](CCNc1ccc(C(=O)O)cc1)CN2 | active: 19 nM |
| CCN(CC)C(=O)CSC1=C(C#N)C(c2cccs2)C=C(C)N1 (stereo unspecified) | inconclusive: 1.3 nM |
| Cc1cc(NCCN2CCOCC2)n2nc(C)c(-c3ccccc3)c2n1 | inconclusive: 2.3 nM |
| CCOC(=O)c1oc2ccccc2c1NC(=O)Cc1cccs1 | inconclusive: 1.7 nM |
| NC(N)=NC[C@H](N)C(=O)O | inactive |
| COc1cc2cc(CN(CCN3CCCC3)C(=O)Nc3ccccc3Cl)c(=O)[nH]c2cc1OC | active: 310 nM |
| Cc1ccc(S(=O)(=O)N(C)CCCC(=O)N2CCN(C=O)CC2)cc1 | inactive |
| CCSc1ccccc1C(=O)Nc1cc(C)on1 | inconclusive: 1.7 nM |
| Cc1cc(C)c2[nH]c(=O)c(C(c3nnnn3CC3CCCO3)N3CCC(C)CC3)cc2c1 (stereo unspecified) | active: 19 nM |
| CC(C)(C)n1nnnc1C(c1ccncc1)N1CCN(C2CCCCC2)CC1 (stereo unspecified) | inconclusive: 1.8 nM |
| O=c1c(-c2cccs2)nc2cncnc2n1Cc1ccccc1 | active: 21 nM |
| Cn1c2ccccc2c2ncn(CCC3=CCCCC3)c(=O)c21 | inconclusive: 1.1 nM |
| COc1ccc(/C(O)=C2/C(=O)C(=O)N(CCCN(C)C)C2c2ccco2)cc1Cl (stereo unspecified) | inactive |
| O=C(c1ccco1)N1CCC2(CC1)CCN(c1ccccn1)CC2 | inactive |
| CCCCn1cnc2c1c(=O)n(CC(=O)c1cc(C)n(C)c1C)c(=O)n2CC(C)C | inconclusive: 1.2 nM |
| C(=C/c1ccccc1)/CN1CCN(C(c2ccccc2)c2ccccc2)CC1 | inactive |
| CCn1c2ccccc2c2cc(NC(=O)COC(=O)C3CCC(=O)N3)ccc21 (stereo unspecified) | inconclusive: 1.4 nM |
| CCC(=O)c1cc(F)c(N2CCN(C(=O)Cc3ccccc3)CC2)cc1C | inactive |

Four records drawn at random from the list so far, as already listed:

| Structure (SMILES) | max dye-equivalent concentration |
| --- | --- |
| CC(C)(C)n1nnnc1C(c1ccncc1)N1CCN(C2CCCCC2)CC1 (stereo unspecified) | inconclusive: 1.8 nM |
| CCSc1ccccc1C(=O)Nc1cc(C)on1 | inconclusive: 1.7 nM |
| O=c1c(-c2cccs2)nc2cncnc2n1Cc1ccccc1 | active: 21 nM |
| Cc1cccc(CN2CCN(CC(=O)O)C2=O)c1 | inconclusive: 5.7 nM |

Source: PubChem BioAssay AID590 (National Center for Advancing Translational Sciences (NCATS), 2007)
